Test results: patent US20080318912A1, “Medicaments for Treating Chronic Respiratory Disease” (priority 2004, published 2008)
At least one structure is not confirmed: it was looked up by name or label, or the drawing left a doubt.

What was measured:
[1] = system: LPS induced increases in BAL cells; test: LPS challenge induced inflammation, BAL cell counts 24 h post challenge; format: in vivo, A/J mice; conditions: dexamethasone 0.3 mg/kg p.o.
Description: Previous studies have shown that peak BAL neutrophilia is achieved 24 h post intranasal challenge with LPS at 0.3 μg. In the studies reported here this dose of LPS and this time point were employed. Control animals received phosphate buffered saline (PBS) intranasally.
Approximately 3 min prior to intra-nasal challenge anaesthesia was induced by isofluorane inhalation. Vehicle (PBS) or LPS was instilled at 50 μl per mouse. The LPS concentration was 6 μg/ml (0.3 μg per mouse). Animals were allowed to recover in a heated box at 37° C. and then returned to the home cage.
The trachea was cannulated using a Portex nylon intravenous cannula (pink luer fitting) shortened to approximately 8 mm. […]
(§1) Lavage fluid was separated from cells by centrifugation and the supernatant decanted and frozen for subsequent analysis. The cell pellet was re-suspended in a known volume of PBS and total cell numbers calculated by counting a stained (Turks stain) aliquot under a microscope using a haemocytometer.
(§2) The residual cell pellet was diluted to approximately 10^5 cells per ml. […] When dried and cover-slipped, differential cells were counted using light microscopy. Up to 400 cells were counted by un biased operator using light microscopy. […]
Animals were sacrificed 24 h post the LPS challenge. A BAL was performed and the total number of cells recovered counted. […]

[2] = system: TS induced inflammation (cells recovered in the BAL); test: Tobacco smoke (TS) induced inflammation, BAL cell counts 24 h after 11 daily exposures; format: in vivo, A/J mice; conditions: dexamethasone 0.3 mg/kg alone p.o., 1 h prior to and 6 h post TS, 11 days
Excerpt: Female inbred AJ mice (body weights on initial day of use: 17.2-27.4 g) were obtained from Harlan, full barrier bred and certified free from specified micro-organisms on receipt. The mice were housed, up to 5 per cage, in individually ventilated, polycarbonate solid bottomed cages (IVC) with grade 8 aspen chip bedding. Environment (airflow, temperature and humidity) within the cages was controlled by the IVC system (Techniplast). Food (RM 1, Special Diet Services) and water were provided ad libitum. Individual animals were identified by unique coloured “pentel” markings on their tails, weighed and randomly assigned to treatment groups.
The required quantity of compound was placed into a mortar. […]
as §1, §2
Animals were sacrificed 24 h post the final exposure to TS/air. A BAL was performed and the total number of cells recovered counted. […]

C[C@@H]1C[C@H]2[C@@H]3CCC4=CC(=O)C=C[C@]4(C)[C@@]3(F)[C@@H](O)C[C@]2(C)[C@@]1(O)C(=O)CO [Dexamethasone, dexamethasone]
Effect on LPS induced pulmonary inflammation [1]: significantly reduced | Inhibitory effect on any of the specific cell types (BAL) [2]: No statistically significant inhibitory effect
